Data published in paper PMC7862700.
Only a part is listed here, and it is no random draw. At the low end of the ranking the order means little.

Target: T1, ELF5 (UniProt Q9UKW6-2)
T1 sequence: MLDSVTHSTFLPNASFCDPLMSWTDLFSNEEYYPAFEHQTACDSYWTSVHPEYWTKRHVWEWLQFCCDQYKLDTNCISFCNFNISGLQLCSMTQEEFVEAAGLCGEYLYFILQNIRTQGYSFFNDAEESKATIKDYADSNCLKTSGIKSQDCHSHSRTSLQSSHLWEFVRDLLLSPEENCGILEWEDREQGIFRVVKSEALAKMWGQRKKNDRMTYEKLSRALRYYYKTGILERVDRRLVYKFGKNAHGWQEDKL
Test: DAPPL (digital affinity profiling via proximity ligation, sequencing)
Conditions: 10 mM Tris-HCl pH 7.5, 50 mM NaCl, 1 mM DTT, 4% glycerol, room temperature, 30 min; GST-TFs on glutathione beads, 16-mer random dsDNA library, 0.1% …; high values mean tight binding; double strand, one strand shown; scale: fold enrichment (6-mer frequency, TF over GST control)

| Sequence | binding signal |
| --- | --- |
| CAGATT | 0.879 |
| TTTGTG | 1.18 |
| ATTGGG | 1.11 |
| TCCTGG | 2.35 |
| CCCCGC | 1.07 |
| AATAGG | 1.19 |
| CAGCTA | 0.953 |
| ACTATG | 1.16 |
| CCTAAC | 1.39 |
| TCGCAT | 0.935 |
| TTAAGA | 0.971 |
| TGACTA | 0.991 |
| CCGCTT | 2.05 |
| CGAACC | 1.09 |
| AATCCA | 1.05 |
| CTGATT | 1.19 |
| CGTTTC | 2.04 |
| AATCTT | 1.43 |
| CAATTT | 1.29 |
| CTAACA | 1.15 |

| Sequence | binding signal |
| --- | --- |
| CATTAA | 0.971 |
| TTGGGC | 0.973 |
| ACTTAG | 0.993 |
| GCCTAA | 1.18 |
| TCTCCA | 1.37 |
| TTGGAT | 0.948 |
| TAGTGG | 1.12 |
| AAAACC | 1.19 |
| TTATCC | 1.56 |
| CCTAGC | 1.06 |
| TCACCT | 1.21 |
| TCACCC | 1.07 |
| GGTGTT | 0.977 |
| GCTTTT | 1.06 |
| AAATGC | 1.33 |
| TCTGTG | 1.04 |
| CTAGTA | 1.08 |
| GATGTA | 1.38 |
| GAACTT | 1.96 |

A second format for part of the listing above.
Sequence | binding signal
ACTATG | 1.16
TCACCT | 1.21
